Source: PubChem BioAssay AID1259254 (NCATS, 2017)

Screen: 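Genome-wide screen for genes that prevent DNA re-replication in cancer cells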 (primary screen)
System: human HCT116 colorectal cancer cells
Reagent: single siRNA against human genes
Timing: 3 days
Read-out: 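Imaged Hoechst DNA stain sorts each cell into a cycle phase by DNA amount; per plate, G2 fraction set to 0% for non-targeting and 100% for GMNN siRNA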
Reading the numbers: G2 robust z-score and G2 cells, % of GMNN control: higher = more G2 cells, more excess DNA replication
Rule for the call: 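An siRNA counts as active if its G2 robust z-score lies at least 5 MADs above the screen median; here such calls match roughly 38% of GMNN control or more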
In all, the deposit lists about 59,000 reagents; shown is a part drawn at random. About 1,550 of them (2.6%) were called active. 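G2 share is only a proxy for re-replication; each gene was hit by three separate siRNAs, and active genes were retested.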 The numbers tell different reagents against one gene apart. Not all columns of the deposit are shown. Not stated in the record: the amount of reagent.

target gene,reagent no.,G2 robust z-score,"G2 cells, % of GMNN control",Outcome
ALDH4A1 (GeneID 8659),1,-0.512,-0.632,inactive
ALDH4A1 (GeneID 8659),2,0.207,4.42,inactive
ALDH4A1 (GeneID 8659),3,0.0906,3.61,inactive
ZWILCH (GeneID 55055),1,-0.323,0.697,inactive
ZWILCH (GeneID 55055),2,0.113,3.76,inactive
ZWILCH (GeneID 55055),3,-0.444,-0.159,inactive
SOX13 (GeneID 9580),1,-0.454,-0.224,inactive
SOX13 (GeneID 9580),2,0.665,7.64,inactive
SOX13 (GeneID 9580),3,0.166,4.13,inactive
OR5W2 (GeneID 390148),1,0.79,8.53,inactive
OR5W2 (GeneID 390148),2,-0.528,-0.747,inactive
OR5W2 (GeneID 390148),3,-1.15,-5.1,inactive
MYO1E (GeneID 4643),1,0.425,5.96,inactive
MYO1E (GeneID 4643),2,0.304,5.11,inactive
MYO1E (GeneID 4643),3,-0.1,2.26,inactive
NHSL3 (GeneID 57648),1,-0.473,-0.364,inactive
NHSL3 (GeneID 57648),2,-0.579,-1.1,inactive
NHSL3 (GeneID 57648),3,0.368,5.55,inactive
LRRC18 (GeneID 474354),1,-1.1,-4.76,inactive
LRRC18 (GeneID 474354),2,-0.796,-2.63,inactive
LRRC18 (GeneID 474354),3,3.48,27.4,inactive
RORA (GeneID 6095),1,-0.795,-2.62,inactive
RORA (GeneID 6095),2,1.86,16.1,inactive
RORA (GeneID 6095),3,0.888,9.22,inactive
CACHD1 (GeneID 57685),1,-0.803,-2.69,inactive
CACHD1 (GeneID 57685),2,1.03,10.2,inactive
CACHD1 (GeneID 57685),3,-0.438,-0.111,inactive
SLC7A14 (GeneID 57709),1,-0.23,1.35,inactive
SLC7A14 (GeneID 57709),2,1.26,11.9,inactive
SLC7A14 (GeneID 57709),3,-0.449,-0.194,inactive
SLC7A14 (GeneID 57709),4,-1.25,-5.85,inactive
SLC7A14 (GeneID 57709),5,0.323,5.24,inactive
SLC7A14 (GeneID 57709),6,-0.189,1.64,inactive
C3orf36 (GeneID 80111),1,-0.673,-1.77,inactive
C3orf36 (GeneID 80111),2,-0.596,-1.23,inactive
C3orf36 (GeneID 80111),3,0.747,8.22,inactive
APOBEC3B (GeneID 9582),1,-0.643,-1.56,inactive
APOBEC3B (GeneID 9582),2,-0.838,-2.93,inactive
APOBEC3B (GeneID 9582),3,0.856,8.99,inactive
CT45A3 (GeneID 441519),1,-0.387,0.242,inactive
CT45A3 (GeneID 441519),2,-0.443,-0.147,inactive
CT45A3 (GeneID 441519),3,-0.378,0.306,inactive
SULT1E1 (GeneID 6783),1,-0.801,-2.67,inactive
SULT1E1 (GeneID 6783),2,4.63,35.6,inactive
SULT1E1 (GeneID 6783),3,1.07,10.5,inactive
CREM (GeneID 1390),1,-0.715,-2.06,inactive
CREM (GeneID 1390),2,5.57,42.1,active
CREM (GeneID 1390),3,0.17,4.16,inactive

A few values from the entries so far:
Result for APOBEC3B (GeneID 9582) #1 in “G2 robust z-score”: -0.643
Under “Outcome”, RORA (GeneID 6095) #3 is entered as inactive
For “Outcome”, OR5W2 (GeneID 390148) #3 reads inactive
SOX13 (GeneID 9580) #1, G2 robust z-score → -0.454
SLC7A14 (GeneID 57709) #3, G2 cells, % of GMNN control = -0.194
NHSL3 (GeneID 57648) #3, G2 robust z-score: 0.368
